# Assay results from PMC8759595.
# Key:
# Myc-ACBD5 S263E = target: T1, Myc-ACBD5 S263E (UniProt Q5T8D3); experiment: co-IP; Myc-ACBD5 constructs in COS-7 lysates treated with or without λPP for 1 h, then Myc-TRAP magnetic agarose beads 1 h at 4°C; endogenous VAPB by immunoblot (Fig. 1 C, methods in p-0042; Fig. 2 D and E)
# T1 sequence: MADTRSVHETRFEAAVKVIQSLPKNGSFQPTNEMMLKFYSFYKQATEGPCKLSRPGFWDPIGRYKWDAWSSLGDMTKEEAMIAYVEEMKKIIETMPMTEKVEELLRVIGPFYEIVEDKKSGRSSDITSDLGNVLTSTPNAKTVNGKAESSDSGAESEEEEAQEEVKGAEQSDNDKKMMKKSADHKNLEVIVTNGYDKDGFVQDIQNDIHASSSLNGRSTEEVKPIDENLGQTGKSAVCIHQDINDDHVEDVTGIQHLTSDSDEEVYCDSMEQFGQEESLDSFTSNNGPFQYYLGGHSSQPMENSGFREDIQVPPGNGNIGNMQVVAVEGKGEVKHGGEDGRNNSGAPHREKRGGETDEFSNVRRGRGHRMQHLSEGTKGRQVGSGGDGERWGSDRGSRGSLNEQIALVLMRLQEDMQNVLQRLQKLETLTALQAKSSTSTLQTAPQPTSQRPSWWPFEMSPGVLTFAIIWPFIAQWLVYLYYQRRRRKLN
# Myc-ACBD5 S259E = target: T2, Myc-ACBD5 S259E (UniProt Q5T8D3); experiment: as above
# T2 sequence: T1 sequence with S259E, E263S
# Myc-ACBD5 = target: T3, Myc-ACBD5 (UniProt Q5T8D3); experiment: as above
# T3 sequence: T1 sequence with E263S
# FLAG-ACBD4 [1] = target: T4, FLAG-ACBD4 (UniProt Q8NC06); experiment: co-IP; FLAG-ACBD4/5 constructs in COS-7 lysates not treated with λPP, precipitated with anti-FLAG M2 affinity gel 1 h at 4°C, eluted with 3x FLAG peptide; endogenous VAPB by immunoblot (Figs. 1 E and S1 A)
# T4 sequence: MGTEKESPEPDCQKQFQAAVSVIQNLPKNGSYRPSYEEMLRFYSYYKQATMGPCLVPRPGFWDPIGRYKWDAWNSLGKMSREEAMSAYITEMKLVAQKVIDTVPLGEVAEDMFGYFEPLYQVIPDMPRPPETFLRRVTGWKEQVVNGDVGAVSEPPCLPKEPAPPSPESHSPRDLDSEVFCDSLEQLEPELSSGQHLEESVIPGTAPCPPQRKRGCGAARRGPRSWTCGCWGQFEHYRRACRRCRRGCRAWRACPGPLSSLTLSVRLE
# FLAG-ACBD5 (COS-7) = target: T5, FLAG-ACBD5 (COS-7) (UniProt Q5T8D3); experiment: as above
# T5 sequence: T1 sequence with E263S
# FLAG-ACBD4 [2] = target: T4, FLAG-ACBD4; experiment: co-IP; FLAG-ACBD4, FLAG-ACBD5 or FLAG-VAPB constructs in COS-7 lysates (50 mM Tris-HCl pH 7.4, 150 mM NaCl, 1 mM EDTA, 1% Triton X-100, phosphatase inhibitor), anti-FLAG M2 affinity gel; immunoblot; GSK3β coexpressed in Fig. 6 (Figs. S3 B and C, 6 A-C)
# FLAG-ACBD4 S183E = target: T6, FLAG-ACBD4 S183E (UniProt Q8NC06); experiment: as above
# T6 sequence: T4 sequence with S183E
substance,measurement,setting,value
endogenous VAPB (COS-7 cells),binding,Myc-ACBD5 S263E,binds
same,binding,Myc-ACBD5 S259E,binds
same,binding,Myc-ACBD5,binds
same,binding,FLAG-ACBD4 [1],binds
same,binding,FLAG-ACBD5 (COS-7),binds
same,binding,FLAG-ACBD4 [2],binds
same,binding,FLAG-ACBD4 S183E,no binding

# Positions count from the first letter of the chain named. No constants are given. Whether binding was seen depends on the method and setting. In cells and extracts the contact can be indirect. For some of these results: A result given as binding can be weak or reduced; the word gives no strength. Where a sequence is shown, tags or fusion partners need not be part of it.
